In patent US10662161B2, “Pyrimidines and uses thereof” (Regents of the University of Minnesota, priority 2017, dated 2020):
At least one structure is not confirmed: it was looked up by name or label, or the drawing left a doubt.

Legend:
human TLR8 = molecular target: T1, human TLR8 (Homo sapiens, UniProt Q9NR97); assay: Human TLR8-specific reporter gene assay (NF-κB induction, sAP) in HEK293 cells; assay type: cell-based; conditions: reporter gene assays with TLR-2/-3/-4/-5/-7/-9 counter-screens
T1 construct: expressed in transfected cells; host or cells: HEK293
T1 sequence (Q9NR97 27-1041): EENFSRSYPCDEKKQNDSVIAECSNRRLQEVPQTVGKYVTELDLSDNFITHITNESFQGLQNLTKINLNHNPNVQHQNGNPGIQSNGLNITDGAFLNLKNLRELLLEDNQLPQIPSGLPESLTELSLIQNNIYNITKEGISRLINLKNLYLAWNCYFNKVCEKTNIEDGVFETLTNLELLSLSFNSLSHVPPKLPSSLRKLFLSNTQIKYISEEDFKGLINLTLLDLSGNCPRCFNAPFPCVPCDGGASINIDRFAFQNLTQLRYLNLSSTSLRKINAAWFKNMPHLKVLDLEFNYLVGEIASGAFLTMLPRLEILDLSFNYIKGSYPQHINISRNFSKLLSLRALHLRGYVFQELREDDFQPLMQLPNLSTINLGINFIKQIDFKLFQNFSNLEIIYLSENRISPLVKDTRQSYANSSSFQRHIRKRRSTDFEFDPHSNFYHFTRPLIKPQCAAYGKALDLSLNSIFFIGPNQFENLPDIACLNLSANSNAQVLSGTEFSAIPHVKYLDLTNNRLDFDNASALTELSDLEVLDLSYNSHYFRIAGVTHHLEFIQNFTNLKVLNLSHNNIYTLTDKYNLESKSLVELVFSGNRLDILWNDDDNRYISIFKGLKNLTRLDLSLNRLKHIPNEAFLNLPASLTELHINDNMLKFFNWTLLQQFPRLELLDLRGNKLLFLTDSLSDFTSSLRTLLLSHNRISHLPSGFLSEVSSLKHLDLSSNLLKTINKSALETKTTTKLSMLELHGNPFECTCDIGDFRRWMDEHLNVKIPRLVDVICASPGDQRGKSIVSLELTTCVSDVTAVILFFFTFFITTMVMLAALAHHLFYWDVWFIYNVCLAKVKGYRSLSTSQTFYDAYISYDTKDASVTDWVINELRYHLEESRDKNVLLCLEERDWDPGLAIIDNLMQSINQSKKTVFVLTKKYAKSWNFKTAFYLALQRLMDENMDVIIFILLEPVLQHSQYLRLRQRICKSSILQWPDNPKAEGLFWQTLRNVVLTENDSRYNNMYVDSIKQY
Description: Human TLR8-Specific Reporter Gene Assays (NF-κB Induction), and TLR-2/-3/-4/-5/-7/-9 Counter-Screens:
The induction of NF-κB was quantified using human TLR-2/-3/-4/-5/-7/-8/-9-specific, rapid-throughput, liquid handler-assisted reporter gene assays as previously described by us.^31,25, 32,33 HEK293 cells stably co-transfected with the appropriate hTLR and secreted alkaline phosphatase (sAP) were maintained in HEK-Blue™ Selection medium. Stable expression of secreted alkaline phosphatase (sAP) under control of NF-κB/AP-1 promoters is inducible by appropriate TLR agonists, and extracellular sAP in the supernatant is proportional to NF-κB induction. Reporter cells were incubated at a density of ˜10^5 cells/ml in a volume of 80 μl/well, in 384-well, flat-bottomed, cell culture-treated microtiter plates in the presence of graded concentrations of stimuli. sAP was assayed spectrophotometrically using an alkaline phosphatase-specific chromogen (present in HEK-detection medium as supplied by InvivoGen) at 620 nm.

[1] = tested on: human peripheral blood mononuclear cells (hPBMC); assay: Multiplexed immunoassays for cytokine and chemokine induction in human PBMCs; assay type: cell-based; conditions: 41-analyte multiplexed immunoassay
Experimental: Immunoassays for Cytokines.
Fresh human peripheral blood mononuclear cells (hPBMC) were isolated from human blood obtained by venipuncture in Cell Preparation Tubes (CPT, Beckton-Dickinson) with informed consent and as per guidelines approved by the University of Minnesota Human Subjects Experimentation Committee. Aliquots of PBMCs (10^5 cells in 100 µL/well) were stimulated for 16 h with graded concentrations of test compounds. Supernatants were isolated by centrifugation, and were assayed in duplicates using analyte-specific multiplexed cytokine/chemokine bead array assays (HCYTMAG-60K-PX29 MILLIPLEX MAP Human Cytokine/Chemokine Magnetic Bead Panel, EMD Millipore, Billerica, Mass.) as reported by us previously.^19 The following analytes were quantified: sCD40L, VEGF, TNF-β, TNF-α. TGF-α, RANTES, PDGF-AB/BB, PDGF-AA, MIP-1β, MIP-1α, MDC (CCL22), MCP-3, MCP-1, IP-10, IL-17A, IL-15, IL-13, IL-12 (p70), IL-12 (p40). IL-10, IL-9, IL-8, IL-7, IL-6, IL-5, IL-4, IL-3, IL-2, IL-1 ra, IL-1β, IL-1α, IFN-γ, IFN-α2, GRO, GM-CSF, G-CSF, fractalkine, Fit-3 ligand, FGF-2, eotaxin, EGF.

With `CCCCNc1cc(-c2ccccc2)nc(N)n1` [Compound 28, N^4-Butyl-6-phenylpyrimidine-2,4-diamine] the “TLR8 specificity/selectivity (in words)” value (human TLR8) was “TLR8-selective agonist” and the “cytokine and chemokine induction (in words)” value [1] was “significantly weaker”.
